At least one compound was matched to its structure with a doubt left.
Tests used:
[1] = test system: SKMES-1 (KRAS^N85K mutant) NSCLC cells; assay: apoptotic and proliferation biomarkers after combined PAK1, PAK2, MEK and PI3K inhibition; format: cell-based, human; details: PAK1 and PAK2 siRNA, 0.4 μM GDC-0623 and 1 μM GDC-0941, 24 hours
[2] = test system: SKMES-1, Calu-6, Cal-120 cells; assay: CellTiter-Glo viability after PAK1 and PAK2 siRNA plus MEK and PI3K inhibitors; format: cell-based, human; details: with PAK1 and PAK2 siRNA, 3 days
Procedure: FIG. 11—Combinatorial effect of PAK1, PAK2, MEK and PI3K inhibition on tumor cell viability. CellTiter-Glo® (CTG) assays of cellular viability were performed following PAK1 and PAK2 siRNA transfection and compound treatment for 3 days, as indicated.
Taken together, these studies provide strong preclinical support that breast and NSCLC may provide several opportunities for rational combination therapies with PAK1 inhibitors. In one embodiment of the present invention there is provided a method of treating tumors comprising contacting the tumor with a PAK 1 inhibitor and a second anti-hyperproliferative compound.

## O=C(NOCCO)c1ccc2cncn2c1Nc1ccc(I)cc1F [GDC-0623]
[1]
  accumulation of cleaved caspase-3 and PARP, decrease of cyclin D1: enhanced
[2]
  combinatorial efficacy, reduced cellular viability: Combinatorial efficacy
